# Experimental data published in the supplement of paper PMC12819154, “High-throughput peptide-centric local stability assay extends protein–ligand identification to membrane proteins, tissues and bacteria” (Nature Structural & Molecular Biology, 2025).
# Protein sequences, listed by entry. Tags and fused reporters are not part of them. Lines headed by an entry give the natural chain unless they say otherwise; changes in a name come on top.
# UniProt P51159: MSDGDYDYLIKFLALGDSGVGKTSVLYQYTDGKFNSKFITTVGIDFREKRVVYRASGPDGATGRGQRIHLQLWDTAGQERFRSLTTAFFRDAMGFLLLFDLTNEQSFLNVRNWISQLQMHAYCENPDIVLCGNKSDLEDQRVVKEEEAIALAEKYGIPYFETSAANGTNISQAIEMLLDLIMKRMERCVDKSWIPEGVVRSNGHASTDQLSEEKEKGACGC
# UniProt P48380: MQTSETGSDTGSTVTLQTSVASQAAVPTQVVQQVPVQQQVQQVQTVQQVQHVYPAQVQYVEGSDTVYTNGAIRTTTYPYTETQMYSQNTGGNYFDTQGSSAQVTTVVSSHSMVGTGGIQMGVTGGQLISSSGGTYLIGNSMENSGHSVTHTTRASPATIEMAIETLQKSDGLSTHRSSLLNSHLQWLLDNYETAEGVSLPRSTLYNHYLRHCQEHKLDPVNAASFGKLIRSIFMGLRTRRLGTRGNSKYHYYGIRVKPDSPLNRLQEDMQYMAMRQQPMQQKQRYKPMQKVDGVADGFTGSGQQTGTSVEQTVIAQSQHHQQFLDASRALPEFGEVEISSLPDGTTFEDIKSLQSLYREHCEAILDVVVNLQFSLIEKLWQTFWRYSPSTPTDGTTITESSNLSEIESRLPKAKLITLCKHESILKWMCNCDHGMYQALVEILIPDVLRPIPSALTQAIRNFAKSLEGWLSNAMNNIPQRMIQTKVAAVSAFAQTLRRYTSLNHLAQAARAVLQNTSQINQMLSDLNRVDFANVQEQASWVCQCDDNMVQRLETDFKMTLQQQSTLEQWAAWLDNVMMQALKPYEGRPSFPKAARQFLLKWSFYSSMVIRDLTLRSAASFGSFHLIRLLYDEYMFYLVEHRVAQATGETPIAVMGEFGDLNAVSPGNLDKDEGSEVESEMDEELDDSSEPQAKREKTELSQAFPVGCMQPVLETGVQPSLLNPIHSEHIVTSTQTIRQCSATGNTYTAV
# UniProt P48681: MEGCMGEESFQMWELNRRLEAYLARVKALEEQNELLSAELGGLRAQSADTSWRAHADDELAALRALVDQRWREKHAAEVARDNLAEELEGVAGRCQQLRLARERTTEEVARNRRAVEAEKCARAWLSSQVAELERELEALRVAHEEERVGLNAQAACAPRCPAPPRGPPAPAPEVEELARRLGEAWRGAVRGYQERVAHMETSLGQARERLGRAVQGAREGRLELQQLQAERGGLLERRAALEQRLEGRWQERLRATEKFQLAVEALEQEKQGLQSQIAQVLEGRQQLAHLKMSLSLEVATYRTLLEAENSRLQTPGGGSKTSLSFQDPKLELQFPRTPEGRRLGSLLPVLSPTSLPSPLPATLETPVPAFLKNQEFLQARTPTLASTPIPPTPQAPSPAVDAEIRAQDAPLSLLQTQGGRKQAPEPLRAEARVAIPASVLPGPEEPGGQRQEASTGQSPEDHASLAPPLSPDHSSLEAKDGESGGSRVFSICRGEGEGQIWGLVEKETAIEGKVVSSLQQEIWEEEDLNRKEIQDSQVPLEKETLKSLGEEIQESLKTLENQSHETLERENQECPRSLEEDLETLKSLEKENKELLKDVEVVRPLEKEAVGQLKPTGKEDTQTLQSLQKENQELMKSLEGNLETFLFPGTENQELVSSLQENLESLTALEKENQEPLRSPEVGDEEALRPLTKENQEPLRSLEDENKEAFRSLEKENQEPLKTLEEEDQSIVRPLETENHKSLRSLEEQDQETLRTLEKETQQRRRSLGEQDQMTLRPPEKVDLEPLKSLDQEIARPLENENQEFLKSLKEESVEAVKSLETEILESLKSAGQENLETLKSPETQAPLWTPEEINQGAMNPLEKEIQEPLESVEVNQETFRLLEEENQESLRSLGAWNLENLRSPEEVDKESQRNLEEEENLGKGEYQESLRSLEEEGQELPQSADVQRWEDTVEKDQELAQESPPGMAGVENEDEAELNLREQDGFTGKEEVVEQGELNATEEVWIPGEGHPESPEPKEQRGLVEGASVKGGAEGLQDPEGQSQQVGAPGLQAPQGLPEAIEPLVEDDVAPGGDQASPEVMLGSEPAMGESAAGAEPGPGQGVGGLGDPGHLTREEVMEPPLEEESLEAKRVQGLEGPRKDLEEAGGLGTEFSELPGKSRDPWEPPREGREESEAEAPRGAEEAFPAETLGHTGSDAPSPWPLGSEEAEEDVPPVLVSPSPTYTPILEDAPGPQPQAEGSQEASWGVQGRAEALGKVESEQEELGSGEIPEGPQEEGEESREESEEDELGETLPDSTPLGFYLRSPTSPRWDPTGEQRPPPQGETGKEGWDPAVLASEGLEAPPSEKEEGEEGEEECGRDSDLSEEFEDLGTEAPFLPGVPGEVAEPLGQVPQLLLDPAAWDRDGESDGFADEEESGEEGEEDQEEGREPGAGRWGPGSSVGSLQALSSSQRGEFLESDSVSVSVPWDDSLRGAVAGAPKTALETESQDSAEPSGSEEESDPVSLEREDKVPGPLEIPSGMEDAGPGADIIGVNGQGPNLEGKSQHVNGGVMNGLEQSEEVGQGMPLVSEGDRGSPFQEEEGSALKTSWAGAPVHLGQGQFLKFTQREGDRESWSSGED
# UniProt P49368: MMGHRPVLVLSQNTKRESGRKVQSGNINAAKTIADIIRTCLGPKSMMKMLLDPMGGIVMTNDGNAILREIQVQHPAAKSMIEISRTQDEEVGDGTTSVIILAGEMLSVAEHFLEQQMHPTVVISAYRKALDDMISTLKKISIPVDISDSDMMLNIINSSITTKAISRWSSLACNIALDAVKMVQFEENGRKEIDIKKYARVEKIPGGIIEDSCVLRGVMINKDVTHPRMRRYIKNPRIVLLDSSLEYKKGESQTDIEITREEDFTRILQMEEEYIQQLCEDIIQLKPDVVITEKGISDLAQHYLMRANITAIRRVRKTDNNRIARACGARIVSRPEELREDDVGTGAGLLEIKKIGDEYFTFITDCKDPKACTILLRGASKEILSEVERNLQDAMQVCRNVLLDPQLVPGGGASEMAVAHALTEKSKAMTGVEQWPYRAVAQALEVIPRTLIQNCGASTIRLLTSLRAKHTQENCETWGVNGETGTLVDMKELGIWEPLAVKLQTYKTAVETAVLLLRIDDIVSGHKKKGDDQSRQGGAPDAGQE
# UniProt P51991: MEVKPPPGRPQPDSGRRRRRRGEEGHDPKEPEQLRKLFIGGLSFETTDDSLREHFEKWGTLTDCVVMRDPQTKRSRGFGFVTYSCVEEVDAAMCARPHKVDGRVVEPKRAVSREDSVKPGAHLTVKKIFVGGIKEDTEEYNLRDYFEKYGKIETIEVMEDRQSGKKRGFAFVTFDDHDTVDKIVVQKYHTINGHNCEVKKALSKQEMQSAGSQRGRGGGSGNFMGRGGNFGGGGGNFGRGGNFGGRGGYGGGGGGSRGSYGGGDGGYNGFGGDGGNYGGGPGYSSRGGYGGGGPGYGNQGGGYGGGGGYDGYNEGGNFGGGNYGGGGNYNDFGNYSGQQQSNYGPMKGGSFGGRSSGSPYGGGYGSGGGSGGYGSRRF
# UniProt P51649: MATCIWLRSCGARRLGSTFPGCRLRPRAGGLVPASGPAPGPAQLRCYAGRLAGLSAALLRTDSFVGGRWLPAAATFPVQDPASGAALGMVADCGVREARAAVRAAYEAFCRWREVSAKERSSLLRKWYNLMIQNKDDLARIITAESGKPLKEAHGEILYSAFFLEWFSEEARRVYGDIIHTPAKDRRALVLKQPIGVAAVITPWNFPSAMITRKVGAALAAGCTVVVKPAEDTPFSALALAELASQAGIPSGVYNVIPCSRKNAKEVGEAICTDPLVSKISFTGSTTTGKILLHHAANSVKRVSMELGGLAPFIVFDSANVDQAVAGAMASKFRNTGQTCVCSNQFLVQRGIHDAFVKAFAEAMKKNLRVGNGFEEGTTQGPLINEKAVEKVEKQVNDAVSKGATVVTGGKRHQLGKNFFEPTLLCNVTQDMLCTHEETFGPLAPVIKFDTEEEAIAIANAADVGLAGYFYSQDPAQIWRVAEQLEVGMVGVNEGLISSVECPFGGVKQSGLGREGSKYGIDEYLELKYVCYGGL
# UniProt P48735: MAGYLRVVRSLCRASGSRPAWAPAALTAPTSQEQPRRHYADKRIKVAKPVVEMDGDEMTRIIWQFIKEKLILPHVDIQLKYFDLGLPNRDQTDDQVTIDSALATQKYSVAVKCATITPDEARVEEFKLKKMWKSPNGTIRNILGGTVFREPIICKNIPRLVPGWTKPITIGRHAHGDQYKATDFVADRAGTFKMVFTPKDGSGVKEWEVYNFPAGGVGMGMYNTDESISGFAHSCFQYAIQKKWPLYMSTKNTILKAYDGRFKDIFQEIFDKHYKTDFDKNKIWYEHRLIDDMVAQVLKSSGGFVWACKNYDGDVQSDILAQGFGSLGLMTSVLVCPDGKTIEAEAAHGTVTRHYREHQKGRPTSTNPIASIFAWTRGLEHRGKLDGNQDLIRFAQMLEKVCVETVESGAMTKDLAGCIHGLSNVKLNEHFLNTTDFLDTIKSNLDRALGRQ
# UniProt P54886: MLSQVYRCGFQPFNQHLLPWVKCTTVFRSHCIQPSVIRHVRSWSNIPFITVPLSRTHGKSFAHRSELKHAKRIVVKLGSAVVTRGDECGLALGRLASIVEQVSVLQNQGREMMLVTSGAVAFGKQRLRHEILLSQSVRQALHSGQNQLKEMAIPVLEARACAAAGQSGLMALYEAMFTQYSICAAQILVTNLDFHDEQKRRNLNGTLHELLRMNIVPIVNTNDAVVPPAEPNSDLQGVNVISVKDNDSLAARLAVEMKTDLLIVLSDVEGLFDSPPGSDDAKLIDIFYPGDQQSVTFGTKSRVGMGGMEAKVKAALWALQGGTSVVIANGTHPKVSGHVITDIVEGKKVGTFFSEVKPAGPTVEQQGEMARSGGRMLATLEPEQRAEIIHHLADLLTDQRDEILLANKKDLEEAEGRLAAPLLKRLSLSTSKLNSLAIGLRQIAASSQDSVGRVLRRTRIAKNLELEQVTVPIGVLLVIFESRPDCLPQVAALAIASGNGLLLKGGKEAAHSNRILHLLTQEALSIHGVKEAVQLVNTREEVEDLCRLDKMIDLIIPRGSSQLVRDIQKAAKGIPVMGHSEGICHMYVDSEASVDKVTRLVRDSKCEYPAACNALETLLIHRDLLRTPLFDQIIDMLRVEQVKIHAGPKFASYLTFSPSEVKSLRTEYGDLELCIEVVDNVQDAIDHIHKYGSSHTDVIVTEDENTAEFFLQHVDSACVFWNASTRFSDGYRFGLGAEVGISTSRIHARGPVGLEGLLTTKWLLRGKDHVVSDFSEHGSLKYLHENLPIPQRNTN
# UniProt P52294, whole entry: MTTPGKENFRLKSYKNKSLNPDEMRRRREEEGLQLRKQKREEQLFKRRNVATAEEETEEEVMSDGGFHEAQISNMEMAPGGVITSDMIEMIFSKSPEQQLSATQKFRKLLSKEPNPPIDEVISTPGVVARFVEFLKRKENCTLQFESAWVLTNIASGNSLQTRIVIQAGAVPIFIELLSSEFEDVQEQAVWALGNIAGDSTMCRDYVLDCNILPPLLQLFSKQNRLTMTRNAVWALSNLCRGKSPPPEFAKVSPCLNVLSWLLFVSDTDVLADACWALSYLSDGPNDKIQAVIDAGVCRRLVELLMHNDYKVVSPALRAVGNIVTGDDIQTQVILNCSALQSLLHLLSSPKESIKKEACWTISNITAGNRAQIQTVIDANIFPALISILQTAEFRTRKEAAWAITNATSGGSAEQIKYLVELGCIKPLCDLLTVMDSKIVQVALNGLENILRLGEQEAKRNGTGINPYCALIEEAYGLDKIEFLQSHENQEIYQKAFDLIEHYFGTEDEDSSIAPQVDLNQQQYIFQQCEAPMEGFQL
# UniProt P50747: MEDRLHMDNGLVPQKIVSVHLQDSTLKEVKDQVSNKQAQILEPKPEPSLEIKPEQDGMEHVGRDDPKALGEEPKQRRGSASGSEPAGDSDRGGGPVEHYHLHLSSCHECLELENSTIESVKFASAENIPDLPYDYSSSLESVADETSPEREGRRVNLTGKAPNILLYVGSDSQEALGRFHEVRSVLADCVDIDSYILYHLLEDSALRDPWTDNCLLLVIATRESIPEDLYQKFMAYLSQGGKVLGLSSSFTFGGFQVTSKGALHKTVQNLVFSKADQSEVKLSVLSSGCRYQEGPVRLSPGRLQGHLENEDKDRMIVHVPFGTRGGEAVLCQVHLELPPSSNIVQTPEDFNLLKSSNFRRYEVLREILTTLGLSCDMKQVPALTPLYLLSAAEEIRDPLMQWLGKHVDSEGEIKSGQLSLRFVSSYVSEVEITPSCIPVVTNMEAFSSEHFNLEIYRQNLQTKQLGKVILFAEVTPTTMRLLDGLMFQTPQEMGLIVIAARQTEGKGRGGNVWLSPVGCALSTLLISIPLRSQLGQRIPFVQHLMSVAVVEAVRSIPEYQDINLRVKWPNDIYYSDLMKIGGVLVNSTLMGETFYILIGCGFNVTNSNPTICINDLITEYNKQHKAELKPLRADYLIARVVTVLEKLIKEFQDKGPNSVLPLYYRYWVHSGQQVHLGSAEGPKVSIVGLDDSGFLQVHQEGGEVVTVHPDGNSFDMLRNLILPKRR
# The other results are listed elsewhere or left out. Small differences around the control level are noise.
# Compound: CN[C@@H]1C[C@H]2O[C@@](C)([C@@H]1OC)n1c3ccccc3c3c4c(c5c6ccccc6n2c5c31)C(=O)NC4 [staurosporine]
# Experiment: log2 fold change of tryptic peptide abundance, ligand vs vehicle (limited proteolysis) (log2 ratio); higher = more trypsin-susceptible (destabilized)
# Conditions: ligand concentration: 20 uM; sample: K562 cleared lysate; digestion: 4 min, 22 C (HT-PELSA RT4min, Orbitrap Astral)
row,Target,log2 fold change
1,"RAB27A (peptide sequence: FITTVGIDFR, peptide start residue: 38) (UniProt P51159)",-0.17
2,"GDI2 (peptide sequence: KNDIYGED, peptide start residue: 438) (UniProt P50395)",-0.152
3,"SMARCA4 (peptide sequence: AIEEGTLEEIEEEVRQK, peptide start residue: 1391) (UniProt P51532)",0.562
4,"UniProt P52564 (peptide sequence: ATVNSQEQKR, peptide start residue: 97)",-1.02
5,"LSS (peptide sequence: WYVDGPASTAFQEHVSR, peptide start residue: 348) (UniProt P48449)",-0.379
6,"CDKN1B (peptide sequence: TDPSDSQTGLAEQCAGIR, peptide start residue: 135) (UniProt P46527)",-0.155
7,"RFX3 (peptide sequence: ASPATIEMAIETLQK, peptide start residue: 154) (UniProt P48380)",-0.509
8,"RAD23A (peptide sequence: ERVVAALR, peptide start residue: 178) (UniProt P54725)",-0.188
9,"NES (peptide sequence: WDPTGEQRPPPQGETGK, peptide start residue: 1313) (UniProt P48681)",-0.232
10,"CCT3 (peptide sequence: GESQTDIEITR, peptide start residue: 250) (UniProt P49368)",-0.23
11,"RGS19 (peptide sequence: AEANQHVVDEK, peptide start residue: 128) (UniProt P49795)",-0.712
12,"UniProt P48729 (peptide sequence: QHIPYREDKNLTGTAR, peptide start residue: 171)",0.181
13,"IQGAP1 (peptide sequence: IFYPETTDIYDRK, peptide start residue: 131) (UniProt P46940)",0.233
14,"HNRNPA3 (peptide sequence: GEEGHDPKEPEQLRK, peptide start residue: 22) (UniProt P51991)",0.598
15,"METAP2 (peptide sequence: NFDVGHVPIRLPR, peptide start residue: 386) (UniProt P50579)",0.162
16,"ALDH5A1 (peptide sequence: ISFTGSTTTGK, peptide start residue: 280) (UniProt P51649)",0.27
17,"IDH2 (peptide sequence: IKVAKPVVEMDGDEMTR, peptide start residue: 44) (UniProt P48735)",0.334
18,"RCAN1 (peptide sequence: VFVDGLCR, peptide start residue: 77) (UniProt P53805)",0.222
19,"UniProt P51814 (peptide sequence: QENQNNLLSHVK, peptide start residue: 190)",0.514
20,"TPMT (peptide sequence: GALVAINPGDRK, peptide start residue: 153) (UniProt P51580)",0.425
21,"BLM (peptide sequence: FVIHASLPK, peptide start residue: 960) (UniProt P54132)",0.66
22,"ALDH18A1 (peptide sequence: KVGTFFSEVKPAGPTVEQQGEMAR, peptide start residue: 348) (UniProt P54886)",0.464
23,"LIG4 (peptide sequence: HLYIGGDDEPQEKK, peptide start residue: 614) (UniProt P49917)",0.823
24,"KPNA1 (peptide sequence: REEEGLQLR, peptide start residue: 28) (UniProt P52294)",0.474
25,"HLCS (peptide sequence: GSASGSEPAGDSDR, peptide start residue: 78) (UniProt P50747)",0.358

# Reformatted with tabs: entries from further up.
row	Target	log2 fold change
13	IQGAP1 (peptide sequence: IFYPETTDIYDRK, peptide start residue: 131) (UniProt P46940)	0.233
14	HNRNPA3 (peptide sequence: GEEGHDPKEPEQLRK, peptide start residue: 22) (UniProt P51991)	0.598
